# In PubChem BioAssay AID2685 (National Center for Advancing Translational Sciences (NCATS), 2010):
# This is one part of the list. The main result of the screen is listed elsewhere. These columns were measured beside it and carry no call. Most of these compounds were active or inconclusive in the main read-out, so they are no random draw. The note in brackets gives the kind of curve behind each potency; many fits are weak.
# Assay: qHTS Assay for Lipid Storage Modulators in Drosophila S3 Cells;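 on cell number change: cells counted by Cell Tracker Red CMTPX staining in the red channel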
# Settings: BODIPY lipid droplet fluorescence, 18-24 h; for cell number change: measured here: cell count max response, cells fed with added oleic acid
# In short: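 Drosophila S3 cells got compounds at several concentrations plus oleic acid (400 uM solution). Laser-scanning cytometry with 488 nm excitation read lipid droplets at 500-530 nm and cells at 575-640 nm. Percent activity was relative to 20 uM Triacsin C.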
# [1] = measured here: cell number channel AC50, cells fed with added oleic acid
# [2] = measured here: lipid fluorescence (Fed channel) AC50, cells fed with added oleic acid
Compound,cell number change [%],AC50 [1],AC50 [2]
Cn1c(SCCN2CCOCC2)nc2sc3c(c2c1=O)CCCC3,-24.4,"0.0146 µM [falling, full curve, poor fit]",
CCCc1ccc2oc(C(=O)NCc3nnc(C)o3)c(C)c2c1,-5.38,,
N#Cc1ccc(C(=O)Nc2ccc3ccccc3c2)cc1,8.11,,"11.6 µM [rising, single point]"
C[C@@]12CCC3[C@@](CCC4[C@@]3(C)CCC[C@@]4(C)C(=O)NCc3ccccc3)(CC1=O)C2 (stereo not given in full),-30.1,"5.8 µM [falling, single point]","23.1 µM [falling, single point]"
COc1ccccc1CN(C)C(=O)CNC(=O)c1cccc(Cl)c1,31.5,"29.1 µM [rising, single point]",
CCc1ccc(N2CC(C)Cn3c2nc2c3c(=O)n(CCN3CCOCC3)c(=O)n2C)cc1 (stereo not given),-5.57,,"4.11 µM [rising, partial curve, poor fit]"
CN1CCN(CCCNC(=O)c2ccc(CS(=O)(=O)c3ccc(Br)cc3)o2)CC1,2.45,"0.00461 µM [falling, full curve]","0.13 µM [falling, full curve]"
COc1ccc(CNC(=S)N/N=C/c2ccncc2)cc1,19.5,,"20.6 µM [rising, partial curve]"
CCCCNS(=O)(=O)c1ccc2nc(-c3cccnc3)cc(C(=O)NCCCN(CC)CC)c2c1,-10.7,,"3.26 µM [falling, partial curve, poor fit]"
O=C(N/N=C/C=C\c1ccco1)c1ccccn1,-39.4,"20.6 µM [falling, single point]","1.64 µM [falling, partial curve]"
Cc1sc2nc(SCC(=O)N3CCOCC3)[nH]c(=O)c2c1C,,"0.651 µM [falling, single point]","0.651 µM [falling, single point]"
COc1ccc(Oc2nccc(-c3ccccc3)c2C#N)cc1,10.5,,"0.366 µM [falling, single point]"
O=C(Nc1ccc2oc(-c3ccccc3)nc2c1)c1ccncc1,-5.67,"0.411 µM [falling, full curve, poor fit]","23.1 µM [falling, partial curve, poor fit]"
CCOC(=O)C(NC(=O)c1ccccc1OCC)(Nc1ncccn1)C(F)(F)F (stereo not given),58.6,"32.6 µM [rising, partial curve, poor fit]","29.1 µM [rising, partial curve]"
O=C(Cn1c(=O)n(CC2CCCO2)c(=O)c2ccccc21)c1ccccc1 (stereo not given),120,"6.51 µM [falling, single point]",
O=C(NC1CC2CCC(C1)N2C(=O)NCc1ccccc1)NC12CC3CC(CC(C3)C1)C2 (stereo not given),,,"25.9 µM [rising, partial curve, poor fit]"
CC(Oc1ccc([N+](=O)[O-])cc1)C(=O)NCC1CCCO1 (stereo not given),21.4,,"29.1 µM [rising, single point]"
Nc1nnc(-c2cccc(F)c2)s1,3.1,"0.13 µM [falling, full curve, poor fit]","0.13 µM [falling, full curve, poor fit]"

# As a working copy, six of the compounds above:
Compound,cell number change [%],AC50 [1],AC50 [2]
CN1CCN(CCCNC(=O)c2ccc(CS(=O)(=O)c3ccc(Br)cc3)o2)CC1,2.45,"0.00461 µM [falling, full curve]","0.13 µM [falling, full curve]"
COc1ccc(CNC(=S)N/N=C/c2ccncc2)cc1,19.5,,"20.6 µM [rising, partial curve]"
CCCCNS(=O)(=O)c1ccc2nc(-c3cccnc3)cc(C(=O)NCCCN(CC)CC)c2c1,-10.7,,"3.26 µM [falling, partial curve, poor fit]"
O=C(N/N=C/C=C\c1ccco1)c1ccccn1,-39.4,"20.6 µM [falling, single point]","1.64 µM [falling, partial curve]"
Cc1sc2nc(SCC(=O)N3CCOCC3)[nH]c(=O)c2c1C,,"0.651 µM [falling, single point]","0.651 µM [falling, single point]"
COc1ccc(Oc2nccc(-c3ccccc3)c2C#N)cc1,10.5,,"0.366 µM [falling, single point]"

# (listing goes on)

Compound,cell number change [%],AC50 [1],AC50 [2]
Cc1ccc(CC2(O)CC(C)N(C)CC2C)c(C)c1 (stereo not given),-28.8,"0.82 µM [falling, full curve, poor fit]","0.461 µM [falling, full curve]"
CN(C)C(CNC(=O)c1cccc(S(=O)(=O)Nc2ccc(Br)cc2)c1)c1ccco1 (stereo not given),,,"29.1 µM [rising, single point]"
CSCCC(NC(=O)c1ccccc1Cl)C(=O)NCc1ccncc1 (stereo not given),24.3,,
Cc1ccc(-n2nc3c(c2NC(=O)c2ccco2)CS(=O)(=O)C3)c(C)c1,-9.27,,"0.116 µM [rising, full curve, poor fit]"
CC(=O)Nc1ccc(OC(=O)Cc2ccc(Cl)cc2)cc1,2.38,,"2.91 µM [rising, partial curve]"
Cc1cc(C)c(NC(=O)CSCc2nc3sc(C)c(C)c3c(=O)[nH]2)c(Cl)c1,-49.9,"29.1 µM [falling, single point]","29.1 µM [falling, single point]"
Cc1cc2nnc(SCC(=O)N3CCN(c4ccccc4)CC3)n2c(N)n1,-11.3,,"6.51 µM [falling, single point]"
Cc1cc2ncn(S(=O)(=O)c3ccc(S(=O)(=O)N4CCOCC4)cc3)c2cc1C,227,"10.3 µM [rising, partial curve]","2.91 µM [rising, partial curve]"
Cn1nc(-c2ccc(Cl)cc2)c2cc(C(=O)N3CCN(c4ccccn4)CC3)sc21,,"0.231 µM [rising, full curve, poor fit]","0.291 µM [rising, partial curve, poor fit]"
Cc1onc(-c2ccccc2)c1-c1nnc(CN2CCN(S(=O)(=O)c3ccccc3)CC2)o1,-25.1,,"29.1 µM [rising, partial curve]"
Cc1c(Cl)cccc1NC(=O)CS(=O)(=O)c1ccccc1,-11.5,,"0.58 µM [rising, single point]"
Cc1cc(C)c(C)c(S(=O)(=O)N2CCC(C(=O)NC3=NCCS3)CC2)c1C,13.3,,"20.6 µM [rising, single point]"
NC(=S)N/N=C/c1ccc(-c2cc(Cl)cc(Cl)c2)o1,-3,,"0.146 µM [rising, full curve, poor fit]"
O=C(CN1C(=O)NC2(CCCCCC2)C1=O)c1cccs1,-13.4,,"0.82 µM [rising, full curve]"
COc1cccc(/C=C2\SC(=S)N(N3C(=O)CCCC3=O)C2=O)c1,14,,"3.26 µM [falling, single point]"
CC(=O)N1N=C(c2cccc(NS(C)(=O)=O)c2)CC1c1cccs1 (stereo not given),31.1,"29.1 µM [rising, single point]",
CCN1CCN(Cc2ccc(OC)c(OCc3ccccc3)c2)CC1,,"1.3 µM [falling, full curve]","1.64 µM [falling, full curve]"
